Reference: paper PMC5575308
No constants are given. Whether binding was seen depends on the method and setting. In cells and extracts the contact can be indirect. Some results given as binding are weak or reduced against the parent protein; the word gives no strength.

By UniProt entry, the sequences of proteins in these tests, tags left out.
UniProt P60468: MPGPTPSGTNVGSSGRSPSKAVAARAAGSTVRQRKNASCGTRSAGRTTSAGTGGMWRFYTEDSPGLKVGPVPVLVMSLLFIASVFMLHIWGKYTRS

Biological target: Sec61β fused to GFP (UniProt P60468)
Assay: co-IP; GFP-Trap precipitation of lysates of transfected C2C12 cells; precipitates blotted with antibodies against β-DG

binding: binds
B1: β-Dystroglycan (protein, UniProt Q62165 652-893)
chain: SIVVEWTNNTLPLEPCPKEQIIGLSRRIADENGKPRPAFSNALEPDFKALSIAVTGSGSCRHLQFIPVAPPSPGSSAAPATEVPDRDPEKSSEDDVYLHTVIPAVVVAAILLIAGIIAMICYRKKRKGKLTLEDQATFIKKGVPIIFADELDDSKPPPSSSMPLILQEEKAPLPPPEYPNQSMPETTPLNQDTVGEYTPLRDEDPNAPPYQPPPPFTAPMEGKGSRPKNMTPYRSPPPYVPP
